The values that follow come from patent publication EP0579804B1, “BIOLOGICAL ARTIFICIAL LIVER” (MONSANTO COMPANY, priority 1992, dated 1993).

The test system of this series is Hepatocytes. Put plainly: extracorporeal hepatic metabolism in the hepatocyte bioreactor attached to an ahepatic pig. The format is in vitro ADME, outbred Yorkshire/white pig. The note with it: administered into the ultrafiltrate at the inlet of the bioreactor; metabolites 7-OH-coumarin and monoethylglycinexylidide (MEGX) measured at the outlets of the bioreactors.

Consider `CCN(CC)CC(=O)Nc1c(C)cccc1C` [lidocaine], for which the metabolism result is “Significant metabolism”.
